# Measurements from US6841718B2 (priority 2000, dated 2005).
# At least one structure is not confirmed: it was looked up by name or label, or the drawing left a doubt.
# Test system: Colletotrichum spores
# Assay: spore adhesion assay (polystyrene, glass, leaf surfaces)
# Assay type: cell-based
# Details: FIG. 23
compound,measurement,value
O=C(O)/C=C/c1ccc(O)cc1 [coumaric acid],adhesion of Colletotrichum spores to polystyrene,did not inhibit spore adhesion
